Assay results as given in paper PMC4521751.
Results are given in words; binding and its absence hold for the method and conditions named. Binding seen in cells or lysates may run through a third protein. Binding calls can cover weak binding; strength is not graded here. Where a sequence is shown, tags or fusion partners need not be part of it.

The chains behind the UniProt entries cited, without tags or fusion partners. Where a name states a change or a piece, a line headed by the entry shows the natural chain unless it says otherwise.
UniProt Q6Y598: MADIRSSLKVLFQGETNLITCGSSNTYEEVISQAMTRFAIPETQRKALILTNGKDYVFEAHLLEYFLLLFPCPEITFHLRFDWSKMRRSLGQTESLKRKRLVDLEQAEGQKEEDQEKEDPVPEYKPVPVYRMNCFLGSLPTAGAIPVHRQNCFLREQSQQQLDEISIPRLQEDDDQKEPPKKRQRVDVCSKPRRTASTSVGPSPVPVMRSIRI

B1: HA-DmP53 (protein, UniProt Q9N6D8 1-385)
chain: MYISQPMSWHKESTDSEDDSTEVDIKEDIPKTVEVSGSELTTEPMAFLQGLNSGNLMQFSQQSVLREMMLQDIQIQANTLPKLENHNIGGYCFSMVLDEPPKSLWMYSIPLNKLYIRMNKAFNVDVQFKSKMPIQPLNLRVFLCFSNDVSAPVVRCQNHLSVEPLTANNAKMRESLLRSENPNSVYCGNAQGKGISERFSVVVPLNMSRSVTRSGLTRQTLAFKFVCQNSCIGRKETSLVFCLEKACGDIVGQHVIHVKICTCPKRDRIQDERQLNSKKRKSVPEAAEEDEPSKVRRCIAIKTEDTESNDSRDCDDSAAEWNVSRTPDGDYRLAITCPNKEWLLQSIEGMIKEAAAEVLRNPNQENLRRHANKLLSLKKRAYELP

Tests used:
[1] = biological target: T1, GST-DmP53 (Drosophila melanogaster) (UniProt Q9N6D8); experiment: pull-down; 1 ug GST or GST-DmP53 on glutathione-agarose beads, 500 ul lysate of transfected cells (RIPA), 4°C overnight, washed 4 times with RIPA buffer; blot with anti-Flag M2; only the target purified
T1 sequence: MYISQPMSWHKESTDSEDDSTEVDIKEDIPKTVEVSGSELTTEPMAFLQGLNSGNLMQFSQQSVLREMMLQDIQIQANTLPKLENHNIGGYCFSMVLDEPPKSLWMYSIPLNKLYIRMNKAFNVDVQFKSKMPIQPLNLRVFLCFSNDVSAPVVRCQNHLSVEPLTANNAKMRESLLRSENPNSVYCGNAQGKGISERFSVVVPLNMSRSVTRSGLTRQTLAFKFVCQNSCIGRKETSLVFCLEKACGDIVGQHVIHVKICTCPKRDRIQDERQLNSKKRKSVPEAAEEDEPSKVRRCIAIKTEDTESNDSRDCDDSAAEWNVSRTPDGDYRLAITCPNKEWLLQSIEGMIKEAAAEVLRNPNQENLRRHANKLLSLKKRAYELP

[2] = biological target: Corp-GFP-Flag (Drosophila melanogaster) (UniProt Q6Y598); experiment: co-IP; Corp-GFP-FLAG constructs co-transfected with HA-DmP53 in HeLa cells; IP with anti-Flag, blot with anti-HA
[3] = biological target: Corp(Δ14–54)-GFP-FLAG (Drosophila melanogaster); experiment: as above

Row | Molecule | binding [1] | binding [2] | binding [3]
1 | Corp-GFP-Flag (from UniProt Q6Y598) | binds |  | 
2 | B1 |  | binds | binds
